Assay results from paper doi:10.64898/2025.12.03.692022.
These are yes or no findings as the source states them, for the method shown. A result given as binding can be weak or reduced; the word gives no strength.

Protein sequences, listed by entry. Tags and fused reporters are not part of them. Lines headed by an entry give the natural chain unless they say otherwise; changes in a name come on top.
UniProt A0A3Q7I3M4: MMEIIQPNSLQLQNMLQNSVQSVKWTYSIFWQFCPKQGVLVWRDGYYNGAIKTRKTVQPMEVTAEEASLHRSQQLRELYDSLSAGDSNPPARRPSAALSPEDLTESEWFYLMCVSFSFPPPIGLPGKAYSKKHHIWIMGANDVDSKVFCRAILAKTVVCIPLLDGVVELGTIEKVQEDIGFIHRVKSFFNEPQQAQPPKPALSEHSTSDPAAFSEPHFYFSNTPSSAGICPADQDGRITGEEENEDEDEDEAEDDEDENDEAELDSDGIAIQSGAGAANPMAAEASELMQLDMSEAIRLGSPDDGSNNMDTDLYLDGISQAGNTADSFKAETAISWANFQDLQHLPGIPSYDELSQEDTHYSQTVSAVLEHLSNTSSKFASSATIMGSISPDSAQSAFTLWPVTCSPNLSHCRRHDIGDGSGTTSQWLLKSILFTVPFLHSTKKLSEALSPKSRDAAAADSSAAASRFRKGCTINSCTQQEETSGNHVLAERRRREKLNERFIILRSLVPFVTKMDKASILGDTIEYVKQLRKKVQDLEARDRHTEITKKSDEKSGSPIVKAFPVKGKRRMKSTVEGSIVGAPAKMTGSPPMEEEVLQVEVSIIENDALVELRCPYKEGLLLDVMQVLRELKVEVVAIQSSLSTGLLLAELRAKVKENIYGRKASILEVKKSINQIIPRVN

Legend:
[1] = target: BBX21like (tomato, Solyc04g081020) (tomato (Solanum lycopersicum)); assay: two-hybrid
[2] = target: BBX21 (tomato, Solyc12g089240) (tomato (Solanum lycopersicum)); assay: two-hybrid

Molecule | binding [1] | binding [2]
COP1 homolog (tomato, Solyc12g005950) (from UniProt A0A3Q7J232) | binds | binds
AN1 (tomato bHLH, Solyc09g065100) (from UniProt A0A3Q7I3M4) | binds | binds
BBX21like (tomato, Solyc04g081020) (from UniProt A0A3Q7GB83) | – | binds
ELONGATED HYPOCOTYL 5 (HY5; tomato, Solyc08g061130) (protein, UniProt Q9SM50 1-158) MQEQATSSIAASSLPSSSERSSSSALHHELKEGMESDDEIRRVPEMGGEATGTTSASGRDGVSAAGQAQPSAGTQRKRGRSPADKENKRLKRLLRNRVSAQQARERKKAYLIDLEARVKELETKNAELEERLSTLQNENQMLRHILKNTTAGAQEGRK | binds | binds
DE-ETIOLATED 1 (DET1; tomato, Solyc01g056340) (protein, UniProt Q9ZNU6 1-523) MFKTNNVTARLFERQICTPAPGTSIHRARRFYENVVPSYTIYDVECPDHSFRKFTDDGLYFVSFSRNHQDLVVYRPTWLTFSCKEEDCDTHDLPLKARKFESFFTQLYSVTLASSGELICKDFFLYMESNQFGLFATSTAQIHDAPPTGGAIQGVPSVEKITFHLLRLVDGAILDERVFHNDYVNLAHSIGAFLYDDLLAIVSLRYQRIHILQIRDSGDLVDVRAIGEFCREDDELFLNSNSQVLVNHVGNGFHHSLPQSETSFLSGIKQRLLSYIFRGIWNEADQTMRVQCLKKKFYFHFQDYIDLIIWKVQFLDRHHLLIKFGSVDGGVSRNADIHPSFFAVYNMETTEIVAFYQNSADELYFLFELFSDHFHVSSKSSLHMNFMSSHSNNIHALEQLRCTKNKATNFSQFVKKMMASLPCSCQSQSPSPYFDQSLFRFDEKLISAIDRHRQSTDHPIKFISRRQPNILKFKMKPGPEAGSTDGRTKKICSFLFHPILPLALSVQQTLFLQASVVNIHFRR | binds | binds
